{"source": "patent US20260284208A1", "about": "“SYSTEM” (Oxford University Innovation Limited, priority 2023, published 2026)", "tested_on": "library of 8,380 IKZF3 degrons (ZF-eGFP/mCherry reporter) in Jurkat cells", "assay": "Pooled library screen (FACS, NGS, limma voom LogFC of positive vs negative read counts)", "type": "cell-based, human", "procedure": "A library of 8,380 IKZF3 degrons was cloned into pLVX-Sprout to create the eGFP/mCherry protein degradation reporter plasmid pool. A lentivirus pool was then generated using the Lenti-X lentiviral vector production method.\nJurkat cells were transduced at a multiplicity of infection of <0.3 with the lentivirus vector library in order to maximise the number of cells with a single integration. Transductions were carried out in 6 well TC-treated cell culture dishes (Falcon) with 3×10^6 cells per well. Cells were incubated for 2 days at 37° C. and 5% CO2 before the supernatant was removed and replaced with fresh media. 6 days post-transduction, mCherry+ cells were isolated via FACS using the FACS Aria Fusion (BD) in a buffer containing PBS (Gibco), 2 mM EDTA (Gibco), 25 mM HEPES (Sigma) and 1% BSA (Sigma). 8 days later, cells were treated with DMSO or a thalidomide analog for 18 hours at 37° C. and 5% CO2. mCherry+GFPlow and NOT(mCherry+GFPlow) cells were sorted by FACS using the FACS Aria Fusion (BD). DMSO treated cells were used to set the mCherry+GFPlow gate and dead cells were excluded from sorting by staining cells with 1 μg/mL DAPI (ThermoFisher). gDNA was isolated using the Maxwell RSC 48 (Promega). gDNA from cells that were unsorted and untreated were also isolated to determine the library representation on the day of compound treatment. Throughout the screen >600× coverage of the library was maintained. 3 biological replicates were carried out with a new transduction taking place each time.\nA two-step PCR was used where the first PCR (PCR1) amplified the integrated degron sequence from gDNA and the second PCR (PCR2) added Illumina adaptors and barcodes to permit multiplexing. See Supp F for PCR1 and PCR2 primers. Q5 Hot Start High-Fidelity 2× Master Mix (New England Biolabs) was used for both PCRs. Sufficient gDNA was amplified in PCR1 in order to maintain >600× coverage and amplicons were purified using solid phase reversible immobilization (SPRI) beads (Beckman Coulter). Purified PCR1 products were analysed on the Tapestation 4200 (Agilent) to confirm purity prior to proceeding to PCR2. Sufficient PCR1 product was amplified in PCR2 in order to maintain >600× coverage and amplicons were run on a 2% agarose TAE gel. Target bands were excised and purified using the NucleoSpin Gel and PCR Clean-up Kit (Machery Nagel). Amplicons were analysed on the Tapestation 4200 and quantified using Qubit dsDNA HS kit (ThermoFisher). PCR products were pooled and sequenced as paired-reads on the NovaSeq (Illumina) using a SP2 200 cycles kit (Illumina).\nCount distributions, percentage of read mapping, library coverage and replicate correlation per sample were assessed for QC purposes.\nTo carry out the library screen, we used the same plasmid construct as in our earlier flow cytometry assays, but pooling all 8,380 mutants together into one Jurkat population, ensuring a copy number of one plasmid per cell (FIG. 4B). […] These GFP-negative cells were then separated from the remaining GFP-positive population using fluorescence activated cell sorting (FACS). These two populations were then sequenced and the relative abundance of every mutant in both populations compared to provide a log FC value for each mutant sequence. This value indicated how frequently a sequence is observed in the GFP-negative population relative to the GFP-positive population, and therefore how effective a degron it is for that particular IMID compound.", "note": "The source gives many values for each of these; only a part stands here.", "data": [{"smiles": "O=C1CCC(N2C(=O)c3ccc(N4CCOCC4)cc3C2=O)C(=O)N1", "note": "(stereo not shown) [B03]", "values": [{"measurement": "B03_logFC", "setting": "Degron-ID 4208, SEQ ID NO 3849, 46F_47W_49N_50I_52G_53A_54K_55F_67L", "result": 2.925}, {"measurement": "B03_logFC", "setting": "Degron-ID 4214, SEQ ID NO 3655, 46F_47W_49N_50I_52G_53A_54R_55F_67L_", "result": 3.336}, {"measurement": "B03_logFC", "setting": "Degron-ID 4240, SEQ ID NO 3902, 46F_47W_49N_50V_52G_53A_54A_55F_67L", "result": 2.847}, {"measurement": "B03_logFC", "setting": "Degron-ID 4241, SEQ ID NO 3875, 46F_47W_49N_50V_52G_53A_54C_55F_67L", "result": 2.891}, {"measurement": "B03_logFC", "setting": "Degron-ID 4246, SEQ ID NO 3820, 46F_47W_49N_50V_52G_53A_54H_55F_67L_", "result": 2.97}, {"measurement": "B03_logFC", "setting": "Degron-ID 4248, SEQ ID NO 4283, 46F_47W_49N_50V_52G_53A_54K_55F_67L_", "result": 2.246}, {"measurement": "B03_logFC", "setting": "Degron-ID 4253, SEQ ID NO 3729, 46F_47W_49N_50V_52G_53A_54Q_55F_67L_", "result": 3.156}, {"measurement": "B03_logFC", "setting": "Degron-ID 4254, SEQ ID NO 3830, 46F_47W_49N_50V_52G_53A_54R_55F_67L_", "result": 2.957}, {"measurement": "B03_logFC", "setting": "Degron-ID 4255, SEQ ID NO 3799, 46F_47W_49N_50V_52G_53A_54S_55F_67L_", "result": 3.009}, {"measurement": "B03_logFC", "setting": "Degron-ID 4257, SEQ ID NO 4386, 46F_47W_49N_50V_52G_53A_54V_55F_67L_", "result": 2.059}, {"measurement": "B03_logFC", "setting": "Degron-ID 4260, SEQ ID NO 3666, 46F_47W_49P_50I_52G_53A_54A_55F_67L_", "result": 3.303}, {"measurement": "B03_logFC", "setting": "Degron-ID 4261, SEQ ID NO 3665, 46F_47W_49P_50I_52G_53A_54C_55F_67L_", "result": 3.308}, {"measurement": "B03_logFC", "setting": "Degron-ID 4264, SEQ ID NO 3805, 46F_47W_49P_50I_52G_53A_54F_55F_67L_", "result": 3}, {"measurement": "B03_logFC", "setting": "Degron-ID 4272, SEQ ID NO 3650, 46F_47W_49P_50I_52G_53A_54P_55F_67L_", "result": 3.35}, {"measurement": "B03_logFC", "setting": "Degron-ID 4277, SEQ ID NO 3850, 46F_47W_49P_50I_52G_53A_54V_55F_67L", "result": 2.922}, {"measurement": "B03_logFC", "setting": "Degron-ID 4281, SEQ ID NO 4290, 46F_47W_49P_50Q_52G_53A_54C_55F_67L_", "result": 2.237}, {"measurement": "B03_logFC", "setting": "Degron-ID 4291, SEQ ID NO 3745, 46F_47W_49P_50Q_52G_53A_54N_55F_67L_", "result": 3.138}, {"measurement": "B03_logFC", "setting": "Degron-ID 4294, SEQ ID NO 3766, 46F_47W_49P_50Q_52G_53A_54R_55F_67L_", "result": 3.085}, {"measurement": "B03_logFC", "setting": "Degron-ID 4295, SEQ ID NO 3940, 46F_47W_49P_50Q_52G_53A_54S_55F_67L", "result": 2.778}, {"measurement": "B03_logFC", "setting": "Degron-ID 4303, SEQ ID NO 4295, 46F_47W_49P_50V_52G_53A_54E_55F_67L_", "result": 2.231}, {"measurement": "B03_logFC", "setting": "Degron-ID 4308, SEQ ID NO 3674, 46F_47W_49P_50V_52G_53A_54K_55F_67L_", "result": 3.289}, {"measurement": "B03_logFC", "setting": "Degron-ID 4309, SEQ ID NO 4247, 46F_47W_49P_50V_52G_53A_54L_55F_67L_", "result": 2.302}, {"measurement": "B03_logFC", "setting": "Degron-ID 4310, SEQ ID NO 3777, 46F_47W_49P_50V_52G_53A_54M_55F_67L_", "result": 3.051}, {"measurement": "B03_logFC", "setting": "Degron-ID 4312, SEQ ID NO 3852, 46F_47W_49P_50V_52G_53A_54P_55F_67L", "result": 2.918}, {"measurement": "B03_logFC", "setting": "Degron-ID 4317, SEQ ID NO 3810, 46F_47W_49P_50V_52G_53A_54V_55F_67L_", "result": 2.991}, {"measurement": "B03_logFC", "setting": "Degron-ID 4319, SEQ ID NO 3844, 46F_47W_49P_50V_52G_53A_54Y_55F_67L_", "result": 2.932}, {"measurement": "B03_logFC", "setting": "Degron-ID 4320, SEQ ID NO 3698, 46F_47Y_49D_50I_52G_53A_54A_55F_67L_", "result": 3.227}, {"measurement": "B03_logFC", "setting": "Degron-ID 4325, SEQ ID NO 4348, 46F_47Y_49D_50I_52G_53A_54G_55F_67L_", "result": 2.126}, {"measurement": "B03_logFC", "setting": "Degron-ID 4328, SEQ ID NO 3659, 46F_47Y_49D_50I_52G_53A_54K_55F_67L_", "result": 3.324}, {"measurement": "B03_logFC", "setting": "Degron-ID 4334, SEQ ID NO 3648, 46F_47Y_49D_50I_52G_53A_54R_55F_67L_", "result": 3.351}, {"measurement": "B03_logFC", "setting": "Degron-ID 4335, SEQ ID NO 3710, 46F_47Y_49D_50I_52G_53A_54S_55F_67L_", "result": 3.202}, {"measurement": "B03_logFC", "setting": "Degron-ID 4336, SEQ ID NO 3860, 46F_47Y_49D_50I_52G_53A_54T_55F_67L", "result": 2.907}, {"measurement": "B03_logFC", "setting": "Degron-ID 4360, SEQ ID NO 3840, 46F_47Y_49D_50V_52G_53A_54A_55F_67L_", "result": 2.941}, {"measurement": "B03_logFC", "setting": "Degron-ID 4361, SEQ ID NO 3863, 46F_47Y_49D_50V_52G_53A_54C_55F_67L", "result": 2.899}, {"measurement": "B03_logFC", "setting": "Degron-ID 4371, SEQ ID NO 3732, 46F_47Y_49D_50V_52G_53A_54N_55F_67L_", "result": 3.152}, {"measurement": "B03_logFC", "setting": "Degron-ID 4373, SEQ ID NO 3693, 46F_47Y_49D_50V_52G_53A_54Q_55F_67L_", "result": 3.236}, {"measurement": "B03_logFC", "setting": "Degron-ID 4374, SEQ ID NO 3677, 46F_47Y_49D_50V_52G_53A_54R_55F_67L_", "result": 3.284}, {"measurement": "B03_logFC", "setting": "Degron-ID 4375, SEQ ID NO 3754, 46F_47Y_49D_50V_52G_53A_54S_55F_67L_", "result": 3.118}, {"measurement": "B03_logFC", "setting": "Degron-ID 4376, SEQ ID NO 3915, 46F_47Y_49D_50V_52G_53A_54T_55F_67L", "result": 2.823}, {"measurement": "B03_logFC", "setting": "Degron-ID 4383, SEQ ID NO 3683, 46F_47Y_49E_50I_52G_53A_54E_55F_67L_", "result": 3.263}, {"measurement": "B03_logFC", "setting": "Degron-ID 4384, SEQ ID NO 3681, 46F_47Y_49E_50I_52G_53A_54F_55F_67L_", "result": 3.271}, {"measurement": "B03_logFC", "setting": "Degron-ID 4385, SEQ ID NO 3718, 46F_47Y_49E_50I_52G_53A_54G_55F_67L_", "result": 3.174}, {"measurement": "B03_logFC", "setting": "Degron-ID 4398, SEQ ID NO 4409, 46F_47Y_49E_50I_52G_53A_54W_55F_67L_", "result": 2.032}]}]}
